{"sequences": {"note": "The chains behind the UniProt entries cited, without tags or fusion partners. Residues count along the entry.", "UniProt P09958, residues 108-794": "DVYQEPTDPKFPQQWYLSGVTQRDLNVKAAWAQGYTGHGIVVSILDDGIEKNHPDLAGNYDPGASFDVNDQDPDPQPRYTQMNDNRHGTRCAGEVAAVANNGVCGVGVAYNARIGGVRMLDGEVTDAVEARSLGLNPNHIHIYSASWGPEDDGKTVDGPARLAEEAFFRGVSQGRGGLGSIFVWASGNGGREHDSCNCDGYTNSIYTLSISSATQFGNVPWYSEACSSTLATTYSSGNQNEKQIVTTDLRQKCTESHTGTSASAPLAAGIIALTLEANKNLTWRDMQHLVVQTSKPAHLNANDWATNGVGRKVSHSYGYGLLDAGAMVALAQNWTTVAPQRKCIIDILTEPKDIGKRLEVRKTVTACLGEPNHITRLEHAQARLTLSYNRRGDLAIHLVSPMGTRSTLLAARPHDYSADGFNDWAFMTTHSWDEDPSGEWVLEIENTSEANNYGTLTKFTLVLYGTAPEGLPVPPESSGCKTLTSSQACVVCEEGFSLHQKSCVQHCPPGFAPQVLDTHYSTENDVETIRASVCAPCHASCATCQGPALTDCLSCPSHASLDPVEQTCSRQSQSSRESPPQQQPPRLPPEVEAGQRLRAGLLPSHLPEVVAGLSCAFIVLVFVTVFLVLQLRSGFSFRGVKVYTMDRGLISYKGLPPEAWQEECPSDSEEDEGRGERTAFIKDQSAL"}, "source": "paper PMC2862740", "about": "“Furin Targeted Drug Delivery for Treatment of Rhabdomyosarcoma in a Mouse Model” (PLoS ONE, 2010)", "target": "furin on furin-overexpressing MRC-5 fibroblasts (MRC-5-FUR) (UniProt P09958)", "experiment": "phage binding assay on cells; phage on untransfected (MRC-5), furin-overexpressing (MRC-FUR) and empty vector transfected (MRC-EV) fibroblasts in vitro; phage binding quantified over control T7", "note": "These are yes or no findings as the source states them, for the method shown. Some entries that bind do so weakly or less than the wild type."}
{"binder": "CMGTINTRTRRC", "note": "[phage RMS-P3/RR]", "values": [{"measurement": "binding", "result": "binds"}]}
